In the experiment the target is T1, Flag-tagged human hexokinase 2 (HK2) (human) (UniProt P52789).
T1 sequence: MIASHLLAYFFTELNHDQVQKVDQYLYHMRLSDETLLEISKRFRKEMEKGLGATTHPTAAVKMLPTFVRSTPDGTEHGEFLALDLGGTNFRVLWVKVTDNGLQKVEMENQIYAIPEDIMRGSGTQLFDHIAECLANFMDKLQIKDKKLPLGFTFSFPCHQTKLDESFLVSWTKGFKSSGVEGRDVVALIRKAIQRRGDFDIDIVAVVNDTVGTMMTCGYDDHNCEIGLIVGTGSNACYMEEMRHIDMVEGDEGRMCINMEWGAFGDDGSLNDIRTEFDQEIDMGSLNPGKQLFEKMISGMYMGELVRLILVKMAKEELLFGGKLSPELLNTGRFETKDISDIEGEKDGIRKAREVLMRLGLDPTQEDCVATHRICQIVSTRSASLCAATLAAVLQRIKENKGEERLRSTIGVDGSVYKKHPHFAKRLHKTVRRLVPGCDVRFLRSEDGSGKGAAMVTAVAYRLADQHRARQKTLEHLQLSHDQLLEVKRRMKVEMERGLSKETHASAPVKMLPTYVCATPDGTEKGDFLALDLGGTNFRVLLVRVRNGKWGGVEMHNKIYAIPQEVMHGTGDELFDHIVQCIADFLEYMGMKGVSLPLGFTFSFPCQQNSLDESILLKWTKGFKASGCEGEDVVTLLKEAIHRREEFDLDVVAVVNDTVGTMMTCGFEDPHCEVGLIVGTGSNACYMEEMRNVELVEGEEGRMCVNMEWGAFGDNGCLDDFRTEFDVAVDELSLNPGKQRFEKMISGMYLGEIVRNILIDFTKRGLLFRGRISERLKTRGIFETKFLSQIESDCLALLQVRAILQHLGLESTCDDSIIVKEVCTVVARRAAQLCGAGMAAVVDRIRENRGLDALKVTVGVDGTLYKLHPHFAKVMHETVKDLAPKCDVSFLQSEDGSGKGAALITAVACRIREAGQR
Description: co-IP; RKO cells transfected with Flag-tagged HK2 plasmid or HA-tagged Twist1 for 48 h, lysed; supernatants incubated with anti-DYDDDDK or anti-HA magnetic beads at 4°C overnight; immunoblotting. In general terms: A western blot detects proteins with antibodies after separation by electrophoresis.

Amino acid sequences for entries named in this document (tags omitted).
UniProt Q15672: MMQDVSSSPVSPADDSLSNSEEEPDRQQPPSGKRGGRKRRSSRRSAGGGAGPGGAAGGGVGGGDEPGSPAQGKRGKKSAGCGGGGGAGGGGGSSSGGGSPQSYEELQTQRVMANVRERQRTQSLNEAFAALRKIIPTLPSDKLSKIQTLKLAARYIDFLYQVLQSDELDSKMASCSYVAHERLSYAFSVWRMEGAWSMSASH

Results are given in words; binding and its absence hold for the method and conditions named. Binding seen in cells or lysates may run through a third protein. Some results given as binding are weak or reduced against the parent protein; the word gives no strength. Where a sequence is shown, tags or fusion partners need not be part of it.

For the substance “HA-tagged human Twist family bHLH transcription factor 1 (Twist1) (from UniProt Q15672 1-202)”, the binding result is recorded as “binds”.

The values are drawn from PMC8435428.
